This is one part of the list. The main result of the screen is listed elsewhere. These columns were measured beside it and carry no call. Most of these compounds were active or inconclusive in the main read-out, so they are no random draw. The note in brackets gives the kind of curve behind each potency; many fits are weak.
Test: qHTS Assay for Lipid Storage Modulators in Drosophila S3 Cells;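 on cell number change: cells counted by Cell Tracker Red CMTPX staining in the red channel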
Details: BODIPY lipid droplet fluorescence, 18-24 h; for cell number change: measured here: cell count max response, cells fed with added oleic acid
Summary of the method: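 Drosophila S3 cells loaded with oleic acid (400 uM, as added) and compounds at several concentrations; lipid droplets imaged by 488-nm laser-scanning cytometry, 500–530 nm intensity and object ratio to cell channel. Percent activity normalized to 20 uM Triacsin C.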

[1] = measured here: cell number channel AC50, cells fed with added oleic acid
[2] = measured here: lipid fluorescence (Fed channel) AC50, cells fed with added oleic acid

Compound | cell number change [%] | AC50 [1] | AC50 [2]
COc1cc(S(=O)(=O)N2CCCCC2)ccc1NC(=O)/C=C/c1ccccc1 | 42.3 | 6.51 µM [rising, partial curve] | 2.91 µM [rising, single point]
COc1ccc(CNC(c2ccccc2)c2ccc(Cl)cc2)cc1 (stereo not drawn) | 67.5 | 29.1 µM [rising, single point] | 29.1 µM [rising, single point]
Cc1ccc(CNc2ncnc3cc(Cl)ccc23)o1 | 21 |  | 5.17 µM [rising, full curve]
Cc1cc(C)n(-c2ccc(NC(=O)C3CCCCN3C(=O)c3occc3C)cc2)n1 (stereo not drawn) | 42.7 | 14.6 µM [rising, partial curve, poor fit] | 29.1 µM [rising, single point]
CCN(C(=O)CSc1nc2ccc(O)cc2c(=O)n1-c1ccc(OC)c(OC)c1)C1CCS(=O)(=O)C1 (stereo not drawn) | 17 |  | 
Cc1ccc(S(=O)(=O)N2CCN(CC(=O)Nc3ccccc3Cl)CC2)cc1 | -6.64 |  | 4.11 µM [falling, full curve, poor fit]
N#CC(/C(=N/S(=O)(=O)c1cccs1)c1ccccc1)c1nc2ccccc2[nH]1 (stereo not drawn) | 5.95 |  | 0.731 µM [falling, single point]
Cc1nnc(C)n1/N=C/c1cc(Br)cc(Br)c1O | 1.36 |  | 23.1 µM [falling, single point]
COc1ccc(-c2nnc(SCC(=O)Nc3ncc(C(F)(F)F)cc3Cl)n2CC(C)C)cc1 | 17.1 | 6.51 µM [falling, single point] | 13 µM [rising, partial curve, poor fit]
CC1=C(C(=O)Nc2ccccc2)C(c2cccc([N+](=O)[O-])c2)Nc2nc3ccccc3n21 (stereo not drawn) | -51.2 | 29.1 µM [falling, single point] | 0.259 µM [rising, full curve]
O=S(=O)(/N=C(/Nc1ccc(Cl)c(S(=O)(=O)N2CCOCC2)c1)c1ccc(F)cc1)c1ccccc1 | 31.4 | 2.06 µM [rising, full curve] | 1.16 µM [rising, partial curve]
CCc1ccc(N(CC(=O)N2CCCCCC2)S(C)(=O)=O)cc1 | -19.9 |  | 29.1 µM [falling, single point]
CC(C)C(C(=O)N1CCN(Cc2ccccc2)CC1)c1ccccc1 (stereo not drawn) | 2.41 |  | 3.66 µM [rising, single point]
CCCCN(CCCC)CCNC(=O)c1cn(C)c2ccc(S(=O)(=O)N(C)C3CCCCC3)cc2c1=O | 18.3 |  | 
COc1ccccc1C(=O)NC(=O)COC(=O)c1ccc([N+](=O)[O-])cc1 | -23.7 |  | 0.13 µM [falling, full curve]
COc1ccc(NC(=O)c2ccco2)cc1NC(=O)c1ccco1 | 1.94 |  | 13 µM [rising, partial curve]
Cc1cccc(NC(=O)CSc2ncnc3sc(C)cc23)c1 | 10.4 |  | 11.6 µM [falling, single point]
CC(Oc1ccc2c3c(c(=O)oc2c1)CCCC3)C(=O)NCc1ccncc1 (stereo not drawn) | -36.1 |  | 
CN(CC(=O)Nc1cccc(F)c1)CC(=O)Nc1cccc(S(=O)(=O)N2CCCCC2)c1 | -10.7 |  | 32.6 µM [falling, single point]

Filtered by structure, the entries above with sulfur (ten)
Compound | cell number change [%] | AC50 [1] | AC50 [2]
COc1cc(S(=O)(=O)N2CCCCC2)ccc1NC(=O)/C=C/c1ccccc1 | 42.3 | 6.51 µM [rising, partial curve] | 2.91 µM [rising, single point]
CCN(C(=O)CSc1nc2ccc(O)cc2c(=O)n1-c1ccc(OC)c(OC)c1)C1CCS(=O)(=O)C1 (stereo not drawn) | 17 |  | 
Cc1ccc(S(=O)(=O)N2CCN(CC(=O)Nc3ccccc3Cl)CC2)cc1 | -6.64 |  | 4.11 µM [falling, full curve, poor fit]
N#CC(/C(=N/S(=O)(=O)c1cccs1)c1ccccc1)c1nc2ccccc2[nH]1 (stereo not drawn) | 5.95 |  | 0.731 µM [falling, single point]
COc1ccc(-c2nnc(SCC(=O)Nc3ncc(C(F)(F)F)cc3Cl)n2CC(C)C)cc1 | 17.1 | 6.51 µM [falling, single point] | 13 µM [rising, partial curve, poor fit]
O=S(=O)(/N=C(/Nc1ccc(Cl)c(S(=O)(=O)N2CCOCC2)c1)c1ccc(F)cc1)c1ccccc1 | 31.4 | 2.06 µM [rising, full curve] | 1.16 µM [rising, partial curve]
CCc1ccc(N(CC(=O)N2CCCCCC2)S(C)(=O)=O)cc1 | -19.9 |  | 29.1 µM [falling, single point]
CCCCN(CCCC)CCNC(=O)c1cn(C)c2ccc(S(=O)(=O)N(C)C3CCCCC3)cc2c1=O | 18.3 |  | 
Cc1cccc(NC(=O)CSc2ncnc3sc(C)cc23)c1 | 10.4 |  | 11.6 µM [falling, single point]
CN(CC(=O)Nc1cccc(F)c1)CC(=O)Nc1cccc(S(=O)(=O)N2CCCCC2)c1 | -10.7 |  | 32.6 µM [falling, single point]

Further entries follow.

Compound | cell number change [%] | AC50 [1] | AC50 [2]
Cc1nnc(SC/C=C/c2ccccc2)n(N)c1=O | -38.4 | 0.146 µM [falling, full curve, poor fit] | 
CCN(CC)S(=O)(=O)c1ccc(Cl)c(NC(C)=O)c1 | -40.6 | 29.1 µM [falling, single point] | 
CCOC(=O)c1nnsc1NC(C)=O | 90.4 | 8.2 µM [rising, partial curve] | 6.51 µM [rising, single point]
O=c1c2cnn(-c3ccccc3)c2nc(-c2cccs2)n1-c1cccc(Cl)c1 | -15.2 |  | 11.6 µM [falling, partial curve]
CCc1c(C)nc(N)c(C#N)c1-c1ccccc1 | -1.16 |  | 0.103 µM [falling, full curve, poor fit]
O=C(OCCN1C(=O)c2ccccc2C1=O)c1ccc(S(=O)(=O)N2CCCCCC2)cc1 | -89.8 | 9.2 µM [falling, partial curve] | 
O=C(Cc1ccc(Cl)cc1)NCCN1CCCC1 | -43.4 | 1.46 µM [falling, full curve] | 1.46 µM [falling, full curve]
O=C(CSc1nnc2c(n1)[nH]c1ccccc12)Nc1cccc(S(=O)(=O)N2CCOCC2)c1 | -30.1 | 9.2 µM [falling, partial curve] | 6.51 µM [falling, partial curve]
C/C(CCc1oc2ccccc2c1-c1ccc(C)o1)=N/O | -52.1 | 29.1 µM [falling, single point] | 23.1 µM [falling, partial curve, poor fit]
COc1ccccc1NC(=O)c1cc(S(=O)(=O)NC2CCCC2)ccc1F | -3.23 |  | 
COc1cc(-c2nc3cccc(C)n3c2NCC2CCCO2)ccc1O (stereo not drawn) | -10.8 |  | 0.164 µM [falling, full curve, poor fit]
Cc1ccc(CNCc2cc3c(C(C)(C)C)nn(-c4ccccc4)c3[nH]c2=O)cc1 | -80.5 | 29.1 µM [falling, single point] | 
CCOC(=O)c1nn(-c2ccccc2F)c(-c2ccccc2)c1C(=O)c1ccccc1 | 2.3 |  | 0.146 µM [rising, full curve, poor fit]
Cc1ccc(CNC(=O)CN(C)S(=O)(=O)c2cnc[nH]2)cc1 | 8.91 |  | 0.164 µM [falling, full curve, poor fit]
COc1ccc(-c2nn(-c3ccccc3)cc2/C=C/C(=O)OCC(=O)Nc2cccc(C#N)c2)cc1 | 21.8 |  | 0.0058 µM [rising, full curve, poor fit]
CCOc1ccc(NC(=O)C2CC(=O)N(CCc3ccc(OC)c(OC)c3)C2)cc1OCC (stereo not drawn) | 2.15 | 4.11 µM [rising, single point] | 1.3 µM [rising, partial curve]
Cc1cc(C)nc(SCc2nnc(SCC(=O)N3CCCc4ccccc43)o2)n1 | 33.4 | 6.51 µM [rising, single point] | 
COc1cc(NC(=O)c2ccc(C)cc2)c(OC)cc1NC(=O)CN1CCOCC1 | 1.94 |  | 0.13 µM [falling, full curve, poor fit]
Cc1ccc(C(=O)Nc2cc(-c3ccn[nH]3)c(C)n(N)c2=O)cc1 | 46 | 0.411 µM [rising, partial curve, poor fit] | 

Compound | cell number change [%] | AC50 [1] | AC50 [2]
COc1ccc(-c2nc3ccccc3c(=O)n2CCCn2ccnc2)cc1 | -34.8 | 32.6 µM [falling, partial curve, poor fit] | 
Cc1ccc(NC(=O)COC(=O)c2c[nH]c3ccccc23)cc1C | 9.98 |  | 0.326 µM [rising, full curve, poor fit]
O=C1c2ccccc2C(=O)C12Cc1ccccc1N1CCN(c3ccccc3)CC12 (stereo not drawn) | -1.12 |  | 0.326 µM [rising, full curve, poor fit]
COc1ccc(S(=O)(=O)N2CCN(C(=O)c3cc(-c4ccc(C)cc4)n[nH]3)CC2)cc1 | 2.31 |  | 20.6 µM [falling, single point]
O=C(CCCOc1ccccc1)Nc1cccc(C(=O)O)c1 | -29.4 |  | 0.461 µM [falling, full curve]
C=CCNC(=S)N/N=C/c1cn(C)c2ccccc12 |  |  | 3.66 µM [rising, single point]
O=C1c2cccnc2C(O)N1Cc1ccco1 (stereo not drawn) | 9.73 |  | 18.4 µM [falling, partial curve]
CC(=O)Nc1nonc1-c1nc2ccccc2n1Cc1ccccn1 | -0.8 |  | 11.6 µM [rising, partial curve, poor fit]
Cc1cc[n+](CC(=O)c2cc3ccccc3oc2=O)cc1 |  |  | 6.51 µM [falling, single point]
O=C(N/N=C/c1ccc2c(c1)OCO2)C(=O)Nc1ccccc1Cl | -49.9 | 5.8 µM [falling, full curve] | 
CC(C)c1ccc(NC(=O)CCNS(=O)(=O)c2cccc3nsnc23)cc1 | 33.9 |  | 5.17 µM [falling, partial curve]
CCN1C(=O)[C@H]2[C@@H](c3ccc(-c4ccc(C(C)=O)cc4)cc3)N3CCC[C@@]3(C(=O)OC)[C@H]2C1=O | -10.8 | 2.91 µM [falling, single point] | 
Cc1cc(=O)oc2cc(NC(=S)NNC(=O)c3c(Cl)cnn3C)ccc12 | 33.5 | 5.8 µM [rising, partial curve] | 18.4 µM [rising, single point]
Cc1nc2c3c(sc2c(=O)[nH]1)NC(=O)CC3c1ccccc1Cl (stereo not drawn) | 3.67 | 0.58 µM [rising, full curve] | 
CCCCNC(=S)N(C)/N=C/c1c(C)[nH]c2ccccc12 | -24.7 | 0.058 µM [falling, full curve] | 32.6 µM [falling, single point]
O=S(=O)(c1cccc(-c2cn3ccccc3n2)c1)N1CCCC1 |  |  | 29.1 µM [rising, single point]
COc1ccc2oc(C(=O)OCC(=O)N3CCN(S(=O)(=O)c4ccc(C)cc4)CC3)c(C)c2c1 | 93.6 |  | 29.1 µM [rising, single point]
O=C(O)C=C1C2CC3CC(C2)CC1C3 | -1.43 |  | 29.1 µM [rising, single point]

Three structures from above, ordered by count of non-hydrogen atoms, rising.
Compound | cell number change [%] | AC50 [1] | AC50 [2]
CCOC(=O)c1nnsc1NC(C)=O | 90.4 | 8.2 µM [rising, partial curve] | 6.51 µM [rising, single point]
Cc1cccc(NC(=O)CSc2ncnc3sc(C)cc23)c1 | 10.4 |  | 11.6 µM [falling, single point]
CCN(C(=O)CSc1nc2ccc(O)cc2c(=O)n1-c1ccc(OC)c(OC)c1)C1CCS(=O)(=O)C1 (stereo not drawn) | 17 |  | 

Reference: PubChem BioAssay AID2685 (National Center for Advancing Translational Sciences (NCATS), 2010)
